{"source": "PubChem BioAssay AID504786 (Drosophila RNAi Screening Center, 2011)", "test": "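Knock-downs reducing HIF reporter induction by the iron chelator DFO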 (primary screen)", "system": "Drosophila S2 cells with a stable HIF luciferase reporter", "reagents": "long dsRNA against Drosophila genes, about 0.2 µg dsRNA per well of a 384-well plate", "time to read-out": "three days of knock-down, then 20 h of DFO before reading", "conditions": "desferrioxamine (DFO) at 100 µM, an iron chelator that mimics hypoxia, for 20 h", "measurement": "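Firefly luciferase driven by the mouse ldh-a hypoxia-response element, measured after 20 h of 100 µM DFO; z-scores per plate, higher means more signal lost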", "direction": "z-score: higher = stronger loss of HIF reporter signal", "note": "The deposit covers about 21,000 reagents; below is an unselected part of those that have a named target and a result. 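Primary screen; positive scores mean lost reporter signal, so the sign may be inverted from the usual convention.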 Names joined by + are all predicted targets of the reagent. Further read-outs or replicates are left out here."}
{"target gene": "U2af50 (U2 small nuclear riboprotein auxiliary factor 50)", "z-score, replicate 1": 4}
{"target gene": "CG1998", "z-score, replicate 1": -0.1}
{"target gene": "Miro (Mitochondrial Rho)", "z-score, replicate 1": -0.1}
{"target gene": "EMC4 (ER membrane protein complex subunit 4)", "z-score, replicate 1": -0.2}
{"target gene": "VGlut (Vesicular glutamate transporter)", "z-score, replicate 1": -0.3}
{"target gene": "CG6000", "z-score, replicate 1": -0.2}
{"target gene": "CG12341", "z-score, replicate 1": -0.1}
{"target gene": "Tap42 (Two A-associated protein of 42kDa)", "z-score, replicate 1": -0.5}
{"target gene": "CG12608", "z-score, replicate 1": -0.2}
{"target gene": "CG14711 + Zaf1", "z-score, replicate 1": -0.3}
{"target gene": "Trpm (Transient receptor potential cation channel, subfamily M)", "z-score, replicate 1": -0.3}

Reformatted: 4 of the entries above.
{"target gene":"Tap42 (Two A-associated protein of 42kDa)","z-score, replicate 1":-0.5}
{"target gene":"CG12608","z-score, replicate 1":-0.2}
{"target gene":"CG14711 + Zaf1","z-score, replicate 1":-0.3}
{"target gene":"Trpm (Transient receptor potential cation channel, subfamily M)","z-score, replicate 1":-0.3}

The list goes on:
{"target gene": "CG13204", "z-score, replicate 1": -0.3}
{"target gene": "Pex5 (Peroxin 5)", "z-score, replicate 1": -0.2}
{"target gene": "ND-ASHI (NADH dehydrogenase (ubiquinone) ASHI subunit)", "z-score, replicate 1": -0.2}
{"target gene": "tor (torso)", "z-score, replicate 1": -0.2}
{"target gene": "P5cr-2 (Pyrroline-5-carboxylate reductase-like 2)", "z-score, replicate 1": -0.2}
{"target gene": "conv (convoluted)", "z-score, replicate 1": -0.3}
{"target gene": "RpL3 + CG6693", "z-score, replicate 1": -0.3}
{"target gene": "CG1299", "z-score, replicate 1": -0.3}
{"target gene": "Upf2", "z-score, replicate 1": -0.3}
{"target gene": "Cpr76Bd (Cuticular protein 76Bd)", "z-score, replicate 1": -0.1}
{"target gene": "EndoU (Endoribonuclease U-specific)", "z-score, replicate 1": -0.2}
{"target gene": "Vps50 (Vacuolar protein sorting 50)", "z-score, replicate 1": -0.3}
{"target gene": "CG7251", "z-score, replicate 1": -0.3}
{"target gene": "CG12259", "z-score, replicate 1": -0.5}
{"target gene": "Gr64c (Gustatory receptor 64c)", "z-score, replicate 1": -0.3}
{"target gene": "nht (no hitter)", "z-score, replicate 1": 9.3}
